# Assay results taken from PubChem BioAssay AID493014 (National Center for Advancing Translational Sciences (NCATS), 2011).
# The list shows a part of the results. These are further read-outs of the screen, such as a control signal, another cell line or another target. No call is given for them. Compounds called inactive in the main read-out are mostly missing here. Words in brackets tell the shape of the fitted curve; partial curves, single points and poor fits give uncertain potencies.
# Assay: qHTS Assay to Find Inhibitors of Chronic Active B-Cell Receptor Signaling
# Settings: ABC-DLBCL IkBa-CBG/CBR reporter, luminescence ratio (green luciferase fused to IkBa over red control in TMD8 lymphoma cells), 4 h
# In short: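 TMD8 human ABC-DLBCL cells with doxycycline-inducible IκBα–green luciferase fusion and unfused red luciferase, in 0.5% FBS medium; compounds up to 46 uM, 4 h at 37C. Green/red luminescence ratio, filter-overlap corrected, fitted to concentration-response curves.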
# [1] = measured here: CBR red luminescence, cell number
# [2] = measured here: IkBa-CBG green luminescence
SMILES,AC50 [1],AC50 [2]
COc1cc(/C=C/C(=O)OCC(=O)NC(=O)NC(C)(C)C)ccc1OCC#N,"2.06 µM [falling, partial curve, poor fit]",–
COc1ccc2c(c1)sc1nc(-c3ccccc3)cn12,"12.6 µM [falling, partial curve]","10 µM [falling, partial curve]"
c1cncc(-c2nc(NCc3ccc4c(c3)OCO4)c3ccccc3n2)c1,"14.1 µM [falling, partial curve]",–
O=C(Nc1ccccc1)c1ccc(Nc2c([N+](=O)[O-])cc([N+](=O)[O-])c3ccccc23)cc1,"6.51 µM [rising, partial curve, poor fit]",–
C=CCN(CC=C)C(=O)COC(=O)c1n[nH]c2ccccc12,"11.2 µM [falling, partial curve]",–
CN1C(=O)C(O)(CC(=O)/C=C/c2ccco2)c2ccccc21 (configuration not stated),"35.5 µM [falling, partial curve, poor fit]",–
CCOC(=O)c1c(-c2ccc(C)s2)csc1NC(=O)c1cccs1,"14.6 µM [rising, single point]",–
O=C(NCCOc1ccccc1Cl)c1cc(F)c(F)cc1Cl,"3.16 µM [rising, full curve]",–
CSc1ccccc1NC(=O)CN(C)C(C)C(=O)NC(=O)NC1CCCCC1 (configuration not stated),"29.1 µM [falling, single point]",–
CN(C)c1ccc(/C=N/N=C2/NC(=O)/C(=C/c3ccc([N+](=O)[O-])cc3)S2)cc1,"0.0891 µM [falling, full curve, poor fit]",–
Cc1cc(C)cc(NC(=O)CCn2c(=O)c3cccn3c3ccccc32)c1,"22.4 µM [falling, single point]",–
COC(=O)[C@]1(Cc2ccccc2)N[C@H](c2ccc(-c3ccccc3)cc2)[C@@H]2C(=O)N(C)C(=O)[C@@H]21,"20.6 µM [falling, single point]",–
COc1ccccc1CNc1nc2nc(C)c(Cl)c(=O)n2[nH]1,"5.8 µM [falling, partial curve]",–
CCOC(=O)c1cccc(NC(=O)CCn2nnc3ccccc32)c1,"6.51 µM [rising, partial curve, poor fit]",–
Cc1nc(SCC(=O)Nc2nc3ccccc3s2)c(C#N)c(C)c1C,"0.651 µM [falling, full curve, poor fit]",–
COc1cccc(CC(Cc2nc3ccccc3[nH]2)c2nc3ccccc3[nH]2)c1 (configuration not stated),"35.5 µM [falling, single point]",–
COc1cc2c(cc1OC)C(c1cc3cc4c(cc3[nH]c1=O)OCO4)N(C(=O)C1CC1)CC2 (configuration not stated),"32.6 µM [falling, partial curve, poor fit]",–
CSc1ccc(-c2cc(=O)c3ccccc3o2)cc1,"0.731 µM [rising, partial curve, poor fit]",–
CC(=O)Nc1ccc(OCc2nnc(-c3ccccc3)o2)cc1,"7.94 µM [rising, partial curve, poor fit]",–
Cc1ccnc(NC(c2ccsc2)c2ccc3ccc(C)nc3c2O)c1 (configuration not stated),"3.55 µM [falling, full curve]",–

SMILES,AC50 [1],AC50 [2]
COc1ccc(CC2=CC(=O)c3ccccc3C2=O)cc1,"11.2 µM [falling, partial curve]","3.98 µM [falling, single point]"
CCCCC(c1nnnn1CS(=O)(=O)c1ccc(C)cc1)N1CCN(C)CC1 (configuration not stated),"35.5 µM [falling, single point]",–
O=c1[nH]c(=O)n([C@H]2C[C@H](O)[C@@H](CO)O2)cc1Br,"32.6 µM [rising, single point]",–
COc1ccc(Br)c(C(=O)OCC(=O)NC(=O)NC2CCCC2)c1,"4.11 µM [falling, single point]",–
CCc1nnc(NC(=O)c2ccc(OCc3c(C)noc3C)c(OC)c2)s1,"0.708 µM [falling, full curve]",–
COC1=C(N)C(=O)c2nc(-c3nc(C(=O)O)c(C)c(-c4ccc(OC)c(OC)c4O)c3N)ccc2C1=O,–,"1.12 µM [rising, full curve]"
O=C(Nc1ccc(F)cc1)c1csc(Cc2ccccc2)n1,"25.1 µM [falling, partial curve, poor fit]",–
Cc1cc2c(c(C)c1Br)C(c1ccc3c(c1)OCO3)CC(=O)O2 (configuration not stated),"29.1 µM [rising, single point]",–
CN(C)c1ccc(/C=N/Nc2cccc(C(=O)O)c2)cc1,"14.1 µM [falling, partial curve, poor fit]",–
CC/C(=N\NC(=O)c1ccoc1C)c1ccc(C)o1,"6.51 µM [falling, partial curve, poor fit]",–
CCCCC(=O)Nc1ccc(C(=O)N2CCN(C)CC2)cc1,"29.1 µM [rising, single point]",–
CCc1c(C)sc(NC(=O)OC)c1C(N)=O,"22.4 µM [rising, single point]",–
CCN(CC)C(=O)c1[nH]cnc1C(=O)N[C@@H](CCCCNC(=O)OC(C)(C)C)C(=O)OC(C)(C)C,"2.82 µM [rising, full curve, poor fit]",–
COc1ccc(OC)c(NC(=O)COc2ccc(Br)cc2)c1,"6.31 µM [rising, full curve, poor fit]",–
O=C(Nc1nc2c(F)c(F)c(F)cc2s1)c1ccco1,"5.62 µM [falling, full curve, poor fit]",–
CC1CN(C(=O)c2ccccc2C(=O)c2ncc[nH]2)CC(C)O1 (configuration not stated),"35.5 µM [falling, single point]",–
COc1ccc(/C=N/NC(=O)c2ccc3nc[nH]c3c2)cc1OC,"11.2 µM [falling, single point]",–
CCOc1ccccc1N1CCN(C(=O)Nc2cccc(Cl)c2)CC1,"29.1 µM [rising, single point]",–
O=C1CCCC/C1=C/Nc1ccc2c(c1)OCO2,"6.31 µM [rising, single point]",–
O=C(CCc1nc(-c2ccccc2)no1)Nc1cc(C(F)(F)F)ccc1Cl,"22.4 µM [rising, single point]",–

# Exported as tab-separated lines: 2 of the compounds above
SMILES	AC50 [1]	AC50 [2]
CCCCC(=O)Nc1ccc(C(=O)N2CCN(C)CC2)cc1	29.1 µM [rising, single point]	–
CCc1c(C)sc(NC(=O)OC)c1C(N)=O	22.4 µM [rising, single point]	–
